Library screening results

The values are deposited in ChEMBL (CHEMBL3988442, “University of Dundee, Small-Polar-MMV Screening Library” (2021)).

Each number is a percent effect as filed. How 0% and 100% were set is not recorded. Most values in the screen are low, and negative values occur. The compounds are a random part of those screened.

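Whole-cell assay for inhibitors of Mycobacterium tuberculosis growth, labelled Cornell in the record; the read-out is not stated. The concentration is filed as 10 mM, unlikely as a test dose, so the dose is not known. The record gives no direction; compounds strong in two other growth screens of this library score well above the rest, so higher reads as stronger inhibition. Of about 53,000 compounds tested this way, about 900 (1.7%) reached 50% or more in at least one test.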

CNC(=O)CNC(=O)Nc1cc(-c2ccccc2)ns1 read 3.795%.
C[C@H](c1ccc(Cl)cc1)n1c(C2CC2)n[nH]c1=O read 0.4293%.
O=C(NC1CCCC1)c1cc(Sc2ncccn2)ccn1 read 21.95%.
CC(C)=CCC/C(C)=C/CC(C)(C)CNCc1ccco1 read 41.22%.
CC1Cc2ccccc2N1C(=O)Cn1nc(-c2cccs2)ccc1=O (configuration not stated) read 18.2%.
CCc1cn[nH]c1C1CCCN(C(=O)c2ncoc2C(C)C)C1 (configuration not stated) read 3.541%.
CCN(Cc1nc2c(cnn2C)c(=O)[nH]1)c1cccc(C)c1C read -0.3508%.
CN(C)C(=O)NC1COC2(CCN(S(=O)(=O)c3ccccc3)CC2)C1 (configuration not stated) read 0.9362%.
O=C(NCc1cccnc1)N1CCc2ncnc(NC3CC3)c2CC1.O=C(O)C(F)(F)F read 6.821%.
CCn1ncc(S(=O)(=O)N[C@@H]2CC[C@@H](n3ccnc3)[C@@H]2O)c1C read 4.179%.
O=C(O)c1cc(-c2cccs2)nc2c(Cl)cnn12 read -12.28%.
COc1cccc(C(=O)NC(C)CCN2CCOCC2)c1F (configuration not stated) read 25.84%.
OC1(CN2CCCC2)COCCN(c2nccs2)C1 (configuration not stated) read -0.9964%.
CC(C)c1noc(C(C)N2CCN(Cc3cccnc3)CC2)n1 (configuration not stated) read 8.939%.
[H][C@@]12CCC(=O)N(CCc3ccccc3)[C@]1([H])CCN(c1ncccc1F)C2 read -18.14%.
OCCOc1ccc(NCc2cccnc2)cn1 read -18.05%.
OCCNC1CSCCc2ccccc21 (configuration not stated) read 3.912%.
COCC(=O)Nc1ccc2c(c1)C1(CCOCC1)CN2CCF.O=C(O)C(F)(F)F read 15.06%.
CC(C)(C)c1cn2nc(N3CCCCC3Cn3cncn3)sc2n1 (configuration not stated) read -1.309%.
O=C(C1CC1)N1CCCC1C1CCN(Cc2ccccc2)CC1 (configuration not stated) read 12.75%.
CCn1ncc2c1C(COC)CN(S(=O)(=O)C1CC1)C2 (configuration not stated) read -9.852%.
Nc1cnc(-c2cccc3c2CCNC3)cn1 read 30.04%.
CC(C)(C)C(=O)CN1Cc2ccccc2NCCC1=O read -2.152%.
O=C(Nc1nncs1)N1CCC(CCO)CC1 read -7.11%.
[H][C@]12C[C@@H](CN3CCCC3)N(C)[C@@]1([H])CCN(C(=O)c1ccsc1)C2 read -22.14%.
O=C(O)C(F)(F)F.[H][C@@]12CCN(c3ncccn3)[C@]1([H])CC[C@H](C(=O)NCc1ccco1)O2 read -37.13%.
CCn1ncnc1C(C)NC(=O)COc1ccc(Cl)cc1Cl (configuration not stated) read 12.42%.
CC(C)(C)c1ncc(C(=O)NCCSc2ccccn2)c(O)n1 read -0.1018%.
c1cnc(CC2CCN(c3cnccn3)CC2)cn1 read 7.507%.
Cc1ccc(CN2CCc3nnc(CN4CCCC4=O)n3CC2)o1.O=C(O)C(F)(F)F read -3.177%.
O=C(O)C(F)(F)F.[H][C@@]12CCN(c3ncc(F)cn3)[C@]1([H])CC[C@H](C(=O)NCCOC)O2 read 12.46%.
COC1CCN(C(=O)Cn2ccc3ccccc32)CC1 read 2.586%.
Cc1cnn(CCC(=O)Nc2cccnc2N2CCC(CO)CC2)c1 read 1.74%.
CCC(=O)Nc1cc(Br)cn(C)c1=O read 6.177%.
O=C(NCCn1nc2ccccn2c1=O)c1cccc2[nH]ncc12 read 1.123%.
CCc1cc(-c2nccn2-c2ccccc2CN2CCOCC2)on1 read 7.346%.
CC(=O)N(CCC(=O)NC1(C#N)CCC1)Cc1ccccc1 read -28.45%.
NC(=O)C1CCN(C(=O)CCSCc2ccc(Cl)c(Cl)c2)CC1 read 42.57%.
O=C(O)C(F)(F)F.[H][C@@]12CN(S(C)(=O)=O)C[C@H](C(=O)Nc3cccnc3)[C@]1([H])CCO2 read 2.915%.
O=C(O)C(F)(F)F.O=C(O)C(F)(F)F.[H][C@@]12CCN(C)C[C@]1(C(=O)NCCc1ccccn1)CCO2 read -27.51%.
NC(=O)c1cn2cc(-c3ccccc3Cl)n(CC3CC3)c(=O)c2n1 read 14.04%.
CC(C)n1ccnc1CN1CCCN(C(=O)CC2CCCO2)CC1 (configuration not stated) read -34.96%.
CC1CN(C)c2ccccc2N(C(=O)c2c[nH]c(C(C)C)n2)C1 (configuration not stated) read -19.61%.
CC(C)OCCS(=O)(=O)N1CCCC1c1cccc(N(C)C)c1 (configuration not stated) read 4.989%.
CC(NC(=O)CN(C)C(C)C)c1ccc(Oc2cccnc2)c(F)c1 (configuration not stated) read 38.99%.
CCC1CN(C(=O)c2cccc(O)c2)CCC(=O)N1Cc1ccccc1 (configuration not stated) read -25.67%.
CCOCCN1CCN(CC(=O)NC2(C#N)CCCC2)CC1C (configuration not stated) read -71.08%.
Cc1cc(C(F)(F)F)cc(N2C[C@@H](CN(C)CCO)[C@@H](CO)C2)n1 read 7.399%.
NC(=O)NC(=O)CCSCc1coc(-c2ccc(F)cc2)n1 read -10.77%.
Cc1cc(C(=O)NCCN2CCCCC2C)nn1C(C)(C)C (configuration not stated) read -3.721%.

5 of the entries, repeated:

Nc1cnc(-c2cccc3c2CCNC3)cn1 read 30.04%.
CC(C)(C)c1ncc(C(=O)NCCSc2ccccn2)c(O)n1 read -0.1018%.
CCc1cn[nH]c1C1CCCN(C(=O)c2ncoc2C(C)C)C1 (configuration not stated) read 3.541%.
CCC1CN(C(=O)c2cccc(O)c2)CCC(=O)N1Cc1ccccc1 (configuration not stated) read -25.67%.
NC(=O)NC(=O)CCSCc1coc(-c2ccc(F)cc2)n1 read -10.77%.